Only a part is listed here, and it is no random draw.

Amino acid sequences for entries named in this document (tags omitted).
furin, P09958, UniProt P09958, whole entry: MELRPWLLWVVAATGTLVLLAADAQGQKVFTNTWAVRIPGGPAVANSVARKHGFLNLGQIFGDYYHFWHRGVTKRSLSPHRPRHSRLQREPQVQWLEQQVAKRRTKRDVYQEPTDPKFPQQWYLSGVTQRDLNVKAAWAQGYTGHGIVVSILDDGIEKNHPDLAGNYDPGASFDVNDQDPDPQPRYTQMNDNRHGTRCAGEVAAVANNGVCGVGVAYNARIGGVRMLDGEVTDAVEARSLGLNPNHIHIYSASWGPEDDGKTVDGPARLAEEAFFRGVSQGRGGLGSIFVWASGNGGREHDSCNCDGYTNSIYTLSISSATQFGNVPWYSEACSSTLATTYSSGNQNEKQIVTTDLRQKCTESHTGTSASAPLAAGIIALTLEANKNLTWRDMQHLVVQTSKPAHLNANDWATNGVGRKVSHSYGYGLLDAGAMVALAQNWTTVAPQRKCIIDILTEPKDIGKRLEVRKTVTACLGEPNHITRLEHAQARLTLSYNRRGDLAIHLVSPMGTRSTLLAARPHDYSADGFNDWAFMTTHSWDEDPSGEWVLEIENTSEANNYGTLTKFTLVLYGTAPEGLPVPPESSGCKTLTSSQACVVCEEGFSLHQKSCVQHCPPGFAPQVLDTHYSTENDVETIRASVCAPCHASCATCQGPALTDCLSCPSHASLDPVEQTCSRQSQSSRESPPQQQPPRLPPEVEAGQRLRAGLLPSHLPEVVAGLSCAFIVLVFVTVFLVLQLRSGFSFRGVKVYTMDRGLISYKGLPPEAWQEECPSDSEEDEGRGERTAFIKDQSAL

In the test the target is furin, P09958. Nature of the test: furin cleavage Z-score vs untreated control; higher = more cleavage, active = 3.5 or more, inactive = 1 or less, 8 variable residues between constant flanks. As for the experimental part:
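Multiplexed peptide-cDNA fusion cleavage assay. 8-mer variable peptides flanked by constant Cys-Ala (N-term) and Ala-Gly-Asn-Ala-Ser-Ala-Ser-Ala (C-term) and conjugated to a cDNA oligonucleotide were bead-immobilised via the N-terminus. They were treated with purified furin at a 1:10 enzyme:substrate ratio in 50 mM HEPES pH 7.5, 1 mM CaCl2, 100 mM NaCl for 7.5, 15 or 30 min. Released cDNA was counted by next-generation sequencing, and log counts versus no-furin controls were lowess-adjusted and converted to robust Z-scores.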

With CAEVPCHRDSAGNASASA [HC2391], the “furin cleavage Z-score” value is inactive: 0.533 (7.5 min), 1.52 (15 min) and 1.63 (30 min).

Take CADIIRQKRLAGNASASA [FS-755]: the “furin cleavage Z-score” value by setting is: (7.5 min) 1.14; (15 min) 1.93; (30 min) 2.68.

In the case of CAGPGRAQRSAGNASASA [FS-1200], the “furin cleavage Z-score” value turned out to be 1.54 (7.5 min), 1.32 (15 min) and 2.77 (30 min).

For the sequence CATTPCSGAWAGNASASA [HC1903], the “furin cleavage Z-score” value reads like this: (7.5 min) 1.82; (15 min) 1.1; (30 min) 1.14.

As to CARKRRSTNEAGNASASA [FS-2039], the “furin cleavage Z-score” value by setting is: (7.5 min) active: 13.4; (15 min) active: 14; (30 min) active: 10.3.

For the sequence CALLHRAKKGAGNASASA [FS-1641], the “furin cleavage Z-score” value is, setting by setting: (7.5 min) 1.22; (15 min) 1.04; (30 min) 1.32.

As for CAGSSRPYRCAGNASASA [FS-168], the “furin cleavage Z-score” value (7.5 min) is 2.08, the “furin cleavage Z-score” value (15 min) was 3.41 and the “furin cleavage Z-score” value (30 min) was determined as 3.16.

Turning to CASRARGPRRAGNASASA [FS-962], the “furin cleavage Z-score” value (7.5 min) worked out at 3.16, the “furin cleavage Z-score” value (15 min) amounted to 2.96 and the “furin cleavage Z-score” value (30 min) came to 3.43.

Consider CARPAREVGDAGNASASA [FS-3199], for which the “furin cleavage Z-score” value came out at 2.69 (7.5 min), 2.98 (15 min) and 2.5 (30 min).

For the sequence CARALRSLDLAGNASASA [FS-2325], the “furin cleavage Z-score” value reads like this: (7.5 min) active: 3.52; (30 min) active: 4.65.

Take CASRYRAQRFAGNASASA [FS-565]: the “furin cleavage Z-score” value runs as follows: (7.5 min) 1.07; (15 min) 1.35; (30 min) 3.3.

Regarding CARMKRAGRVAGNASASA [FS-1751], the “furin cleavage Z-score” value runs as follows: (7.5 min) active: 5.19; (15 min) active: 5.19; (30 min) active: 5.87.

For CALGRRTKRAAGNASASA [FS-50], the “furin cleavage Z-score” value reads like this: (7.5 min) active: 9.24; (15 min) active: 10.5; (30 min) active: 6.44.

With CATRVEAQLHAGNASASA [HC586], the “furin cleavage Z-score” value (7.5 min) is 1.44, the “furin cleavage Z-score” value (15 min) amounted to 2.61 and the “furin cleavage Z-score” value (30 min) turned out to be 1.36.

In the case of CAVLRRAKRRAGNASASA [FS-734], the “furin cleavage Z-score” value (7.5 min) worked out at 2.6, the “furin cleavage Z-score” value (15 min) was determined as 2.53 and the “furin cleavage Z-score” value (30 min) turned out to be 1.84.

For CARPARVARVAGNASASA [FS-860], the “furin cleavage Z-score” value (7.5 min) came out at 2.3, the “furin cleavage Z-score” value (15 min) came to 2.11 and the “furin cleavage Z-score” value (30 min) came to 2.27.

For the sequence CAGLMALTLSAGNASASA [HC573], the “furin cleavage Z-score” value reads like this: (7.5 min) 1.05; (15 min) 1.63; (30 min) 1.98.

On to CAEVPCHRNSAGNASASA [HC2401], for which the “furin cleavage Z-score” value turned out to be 1.53 (7.5 min), 1.42 (15 min) and 1.12 (30 min).

Take CAREVRSVAPAGNASASA [FS-2919]: the “furin cleavage Z-score” value (7.5 min) worked out at 1.88, the “furin cleavage Z-score” value (15 min) is 1.63 and the “furin cleavage Z-score” value (30 min) is 2.22.

CALPRRGPRLAGNASASA [HC179]: the “furin cleavage Z-score” value turned out to be 1.91 (7.5 min), 1.55 (15 min) and 2.36 (30 min).

Turning to CAYCWHYPPKAGNASASA [HC403], the “furin cleavage Z-score” value (7.5 min) amounted to 1.04, the “furin cleavage Z-score” value (15 min) was inactive: 0.468 and the “furin cleavage Z-score” value (30 min) came to 2.44.

As for CARQKRRTGAAGNASASA [FS-2757], the “furin cleavage Z-score” value came to 1.21 (7.5 min), 3.29 (15 min) and 2.88 (30 min).

Regarding CARPRRPRRPAGNASASA [FS-2745], the “furin cleavage Z-score” value runs as follows: (7.5 min) 2.24; (15 min) 1.74; (30 min) 1.75.

Source of the values: the supplement of paper PMC3545927.
